These results are taken from publication PMC7647994.

Chains of the proteins cited; added tags and fusions are not shown. Residues count along the entry.
UniProt O76031, residues 57-633: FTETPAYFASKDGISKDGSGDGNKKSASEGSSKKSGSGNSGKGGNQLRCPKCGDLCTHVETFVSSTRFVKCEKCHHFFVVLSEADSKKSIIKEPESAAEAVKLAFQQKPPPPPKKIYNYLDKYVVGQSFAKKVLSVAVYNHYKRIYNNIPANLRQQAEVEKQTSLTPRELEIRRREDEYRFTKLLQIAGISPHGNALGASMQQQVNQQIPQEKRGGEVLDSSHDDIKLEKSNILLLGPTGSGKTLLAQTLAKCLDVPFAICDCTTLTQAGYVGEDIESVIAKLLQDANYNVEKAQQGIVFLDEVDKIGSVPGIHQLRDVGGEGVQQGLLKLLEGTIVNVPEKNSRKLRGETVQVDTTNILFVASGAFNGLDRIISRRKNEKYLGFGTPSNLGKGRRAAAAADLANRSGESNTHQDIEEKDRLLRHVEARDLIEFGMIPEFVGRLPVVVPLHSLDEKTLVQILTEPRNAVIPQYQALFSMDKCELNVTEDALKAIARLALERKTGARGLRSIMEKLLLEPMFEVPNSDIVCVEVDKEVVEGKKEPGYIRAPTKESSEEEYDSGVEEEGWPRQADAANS

For assay [1], the target named is T1, His10-tagged recombinant PDIP38 (H10PDIP38) (human) (UniProt Q9Y2S7).
T1 sequence: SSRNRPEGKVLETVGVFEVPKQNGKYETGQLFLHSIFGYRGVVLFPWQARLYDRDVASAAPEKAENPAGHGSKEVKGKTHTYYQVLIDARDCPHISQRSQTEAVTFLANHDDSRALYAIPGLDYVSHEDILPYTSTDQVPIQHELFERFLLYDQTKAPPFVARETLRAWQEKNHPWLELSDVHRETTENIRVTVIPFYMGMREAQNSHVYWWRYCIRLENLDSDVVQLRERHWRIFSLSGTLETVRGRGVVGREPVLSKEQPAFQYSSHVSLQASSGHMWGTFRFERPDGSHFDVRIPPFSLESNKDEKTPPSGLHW
Description: pull-down; H10PDIP38 immobilised to Ni-NTA agarose, detergent-solubilised HeLa mitochondria applied; only the target purified.

The target in assay [2] is T2, Polymerase δ interacting protein of 38 kDa (PDIP38), endogenous (human (endogenous in HeLa)) (UniProt Q9Y2S7).
T2 sequence: T1 sequence
Kind of assay: co-IP; endogenous proteins from detergent-solubilised HeLa mitochondria; anti-PDIP38 or anti-CLPX antibodies covalently attached to protein A sepharose; IP buffer pH 7.5, 100 mM KCl, 0.5% Triton X-100, 10 mM ATP, 1 h at 4 °C; preimmune serum as control.

Results are given in words; binding and its absence hold for the method and conditions named. Binding seen in cells or lysates may run through a third protein. Some results given as binding are weak or reduced against the parent protein; the word gives no strength. For some assays here: Sequences can lack the tags named with a protein.

On to “CLPX, endogenous (from UniProt O76031 57-633)”, for which the binding entry in assay [1] and in assay [2] was “binds” in each case.
